Data reported in patent publication US4499093A, “Interferon induction method” (Dso "Pharmachim", priority 1982, dated 1985).

Tested on: interferon
Test: identification of dipyridamole-induced interferon (pH, heat, enzyme resistance tests)

SMILES: OCCN(CCO)c1nc(N2CCCCC2)c2nc(N(CCO)CCO)nc(N3CCCCC3)c2n1 [Dipyridamole, 2,6-bis (diethanolamino)-4,8-dipiperidinopyramido [5,4-d]pyrimidine]
- Titre of dipyridamole-induced interferon (L-cells, 56° C., 30 min): 8 (4) IU/ml
- Titre of dipyridamole-induced interferon (L-cells, 56° C., 60 min): 4 IU/ml
- Titre of dipyridamole-induced interferon (L-cells, 65° C., 30 min): 4 IU/ml
- Titre of dipyridamole-induced interferon (L-cells, 75° C., 30 min): 4 IU/ml
- Titre of dipyridamole-induced interferon (L-cells, Controls): 16 IU/ml
- Titre of dipyridamole-induced interferon (L-cells, Desoxyribonuclease): 16 IU/ml
- Titre of dipyridamole-induced interferon (L-cells, Ether): 16 (8) IU/ml
- Titre of dipyridamole-induced interferon (L-cells, Ribonuclease): 16 IU/ml
- Titre of dipyridamole-induced interferon (L-cells, Trypsin): < 4 IU/ml
- Titre of dipyridamole-induced interferon (L-cells, pH 2.0, 18 h): 16 IU/ml
- Titre of dipyridamole-induced interferon (Mouse peritoneal leucocytes, 56° C., 30 min): 16 IU/ml
- Titre of dipyridamole-induced interferon (Mouse peritoneal leucocytes, 56° C., 60 min): 8 IU/ml
- Titre of dipyridamole-induced interferon (Mouse peritoneal leucocytes, 65° C., 30 min): 8 (16) IU/ml
- Titre of dipyridamole-induced interferon (Mouse peritoneal leucocytes, 75° C., 30 min): < 4 IU/ml
- Titre of dipyridamole-induced interferon (Mouse peritoneal leucocytes, Controls): 32 (16) IU/ml
- Titre of dipyridamole-induced interferon (Mouse peritoneal leucocytes, Desoxyribonuclease): 32 IU/ml
- Titre of dipyridamole-induced interferon (Mouse peritoneal leucocytes, Ether): 32 IU/ml
- Titre of dipyridamole-induced interferon (Mouse peritoneal leucocytes, Ribonuclease): 32 IU/ml
- Titre of dipyridamole-induced interferon (Mouse peritoneal leucocytes, Trypsin): < 4 IU/ml
- Titre of dipyridamole-induced interferon (Mouse peritoneal leucocytes, pH 2.0, 18 h): 32 IU/ml
- Titre of dipyridamole-induced interferon (Mouse serum (i.v.), 56° C., 30 min): 128 IU/ml
- Titre of dipyridamole-induced interferon (Mouse serum (i.v.), 56° C., 60 min): 8 IU/ml
- Titre of dipyridamole-induced interferon (Mouse serum (i.v.), 65° C., 30 min): 4 IU/ml
- Titre of dipyridamole-induced interferon (Mouse serum (i.v.), Controls): 128 IU/ml
- Titre of dipyridamole-induced interferon (Mouse serum (i.v.), Desoxyribonuclease): 128 IU/ml
- Titre of dipyridamole-induced interferon (Mouse serum (i.v.), Ribonuclease): 128 IU/ml
- Titre of dipyridamole-induced interferon (Mouse serum (i.v.), Trypsin): < 4 IU/ml
- Titre of dipyridamole-induced interferon (Mouse serum (i.v.), pH 2.0, 18 h): 128 IU/ml
